The values that follow come from the supplement of paper PMC8166895.

Where a name gives a salt, the structure may show the parent alone. Some of the results follow. Most entries show no effect beyond the scatter of the controls.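 A single-replicate pilot screen of approved drugs and clinical or known-target compounds measured melting temperature via differential scanning fluorimetry. Top stabilizing hits raised the melting point by 2 °C or more; negative shifts indicate destabilization.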

This assay relates to SARS-CoV-2 main protease (Mpro, nsp5). Briefly: thermal shift ΔTm of Mpro relative to plate average Tm; higher = stronger thermal stabilization of Mpro (binding). Conditions: 10 µM; protein concentration 1 µM.
For the molecule `Cc1sc2c(c1C)C(c1ccc(Cl)cc1)=N[C@@H](CC(=O)Nc1ccc(O)cc1)c1nnc(C)n1-2`, the “thermal shift ΔTm of Mpro” value is -0.375 °C.

As to `OC[C@H]1O[C@@H](n2cnc3c2N=CNC[C@H]3O)C[C@@H]1O` [Pentostatin], the “thermal shift ΔTm of Mpro” value was -0.00801 °C. The same measure for `CCC(=O)OCC(=O)[C@@]1(OC(=O)CC)[C@@H](C)C[C@H]2[C@@H]3CCC4=CC(=O)C=C[C@]4(C)[C@@]3(Cl)[C@@H](O)C[C@@]21C` [Beclomethasone dipropionate]: -0.0739 °C; for `O=C(O)C(S)=Cc1c[nH]c2ccc(F)cc12`: 0.585 °C. The value for `COc1ccc2[nH]c(C(=O)c3ccccc3)cc2c1` was -0.00675 °C. The same measure for `O=C(/C=C/C=C/c1ccc2c(c1)OCO2)N1CCCCC1` [Piperine]: 0.0055 °C; for `C[C@@H]1O[C@@H](OC[C@H]2O[C@@H](Oc3c(-c4ccc(O)cc4)oc4cc(O)cc(O)c4c3=O)[C@H](O)[C@@H](O)[C@@H]2O)[C@H](O)[C@H](O)[C@H]1O` [Nicotiflorin]: 0.0459 °C.

For the molecule `O=c1c2ccccc2nc2n1CCc1c-2[nH]c2ccccc12` [Rutaecarpine], the “thermal shift ΔTm of Mpro” value was -0.0239 °C.

Consider `COc1ccc(C(=O)/C=C/c2cc(OC)c(OC)c(OC)c2)cc1OC`, for which the “thermal shift ΔTm of Mpro” value was determined as 0.015 °C. Take `Cc1cc(C)nc(SCC(=O)Nc2ncc(Cc3cccc4ccccc34)s2)n1`: the “thermal shift ΔTm of Mpro” value was -0.395 °C. The same measure for `CCc1c(C(=O)C(N)=O)c2c(OCC(=O)O)cccc2n1Cc1ccccc1`: 0.275 °C; for `CCN(CC)Cc1cc(Nc2ccnc3cc(Cl)ccc23)ccc1O` [Amodiaquine hydrochloride]: 0.133 °C; for `CCN(CC)CCNC(=O)COc1ccc(OC)cc1` [Mefexamide hydrochloride]: 0.476 °C. The value for `Clc1ccc(C(Cn2ccnc2)OCc2csc3c(Cl)cccc23)c(Cl)c1` (centres undefined) [Sertaconazole nitrate] was -0.213 °C; that for `C=CCn1c(=O)c2cnc(Nc3ccc(N4CCN(C)CC4)cc3)nc2n1-c1cccc(C(C)(C)O)n1` was 0.56 °C. The same measure for `CCOc1ccc(NC(=O)CC(C)O)cc1` (centres undefined) [Bucetin]: 0.00847 °C; for `O=C(Nc1cccc2cccnc12)c1ccc(N2C(=O)[C@@H]3[C@H](C2=O)[C@@H]2C=C[C@H]3C2)cc1` [IWR-1-endo]: -0.118 °C.

On to `CCCCc1nc(Cl)c(CO)n1Cc1ccc(-c2ccccc2-c2nnn[nH]2)cc1` [Losartan], for which the “thermal shift ΔTm of Mpro” value worked out at 0.196 °C. On to `CCCCc1nc(Cl)c(CO)n1Cc1ccc(-c2ccccc2-c2nnn[nH]2)cc1` [Losartan Potassium (DuP 753)], for which the “thermal shift ΔTm of Mpro” value was 0.589 °C.

Take `CC1(C)S[C@@H]2[C@H](NC(=O)Cc3ccccc3)C(=O)N2[C@H]1C(=O)O` [Penicillin G Sodium]: the “thermal shift ΔTm of Mpro” value turned out to be 0.0179 °C. The value for `O=C1CCC(N2C(=O)c3ccccc3C2=O)C(=O)N1` (centres undefined) [Thalidomide] was 0.167 °C; that for `C[C@H](CCC(=O)NCCS(=O)(=O)O)[C@H]1CC[C@H]2[C@@H]3[C@@H](O)C[C@@H]4C[C@H](O)CC[C@]4(C)[C@H]3CC[C@]12C` [Sodium Tauroursodeoxycholate (TUDC)] was -0.17 °C. In the case of `c1cn2cc(-c3ccc4cn[nH]c4c3)nc(Nc3ccc(N4CCOCC4)cc3)c2n1`, the “thermal shift ΔTm of Mpro” value worked out at 0.0243 °C. The value for `CN1CCN(c2ccc(N3C[C@H](CO)OC3=O)cc2F)C=N1` [Delpazolid] was 0.0148 °C; that for `CCCCC(C#N)(Cn1cncn1)c1ccc(Cl)cc1` (centres undefined) [Myclobutanil] was -0.0273 °C; that for `CC[n+]1c(-c2ccccc2)c2cc(N)ccc2c2ccc(N)cc21` [Ethidium bromide] was -0.102 °C.

As for `O=C1OC(CN2CCOCC2)CN1/N=C/c1ccc([N+](=O)[O-])o1` (centres undefined) [Furaltadone HCl], the “thermal shift ΔTm of Mpro” value is -0.107 °C. Take `O=C(CNc1ccc2ccccc2c1)N/N=C/c1cc(Br)c(O)c(Br)c1O`: the “thermal shift ΔTm of Mpro” value came out at 0.277 °C. The same measure for `O=C1c2c(O)cc(O)cc2O[C@H](c2cc(O)c(O)c(O)c2)[C@H]1O` [Dihydromyricetin]: 0.988 °C. The value for `Cc1ccsc1C(=CCCN1CCC[C@@H](C(=O)O)C1)c1sccc1C` [Tiagabine] was 0.243 °C. The same measure for `Cc1ccc(-c2c(-c3nn(C)c4ncnc(N5CC[C@H](N6CCCCC6)C5)c34)cnn2C)cc1`: 0.112 °C; for `Cc1cc(C)c(CNC(=O)c2cc(-c3ccc(N4CCN(C)CC4)nc3)cc3c2c(C)cn3C(C)C)c(=O)[nH]1`: -0.115 °C; for `CC(C)(C(=O)NCC(F)(F)C(F)(F)F)C(=O)N[C@@H]1C(=O)Nc2ccccc2-c2ccccc21`: -0.0655 °C. With `CN(C)CCNC(=O)c1cccn2c(=O)c3cc4ccccc4cc3nc12`, the “thermal shift ΔTm of Mpro” value turned out to be 0.025 °C. The same measure for `C[n+]1ccccc1/C=N/O` [2-Pyridinealdoxime methochloride]: 0.32 °C. The same measure for `Cc1cccc(Nc2ccccc2C(=O)O)c1C` [Mefenamic Acid]: 0.232 °C; for `CCC(C)n1ncn(-c2ccc(N3CCN(c4ccc(OCC5COC(Cn6cncn6)(c6ccc(Cl)cc6Cl)O5)cc4)CC3)cc2)c1=O` (centres undefined) [Itraconazole]: -0.261 °C. Regarding `CCOc1cc(N)c(Cl)cc1C(=O)NCC1CN(Cc2ccc(F)cc2)CCO1` (centres undefined) [Mosapride Citrate], the “thermal shift ΔTm of Mpro” value is 0.0567 °C. The value for `COC(=O)[C@H](CCSC)NC(=O)c1ccc(NC[C@@H](N)CS)cc1-c1ccccc1` was 0.0247 °C; that for `Cc1c(CN2CCN(c3cccc(C(F)(F)F)c3)CC2)cc(-c2ccccc2)n1NC(=O)c1ccncc1` [Sudoterb free base] was -0.0874 °C; that for `COc1ccc2[nH]cc(C3=CCNCC3)c2c1` was 0.22 °C. The same measure for `CC(C)Nc1nc2cc(Cl)c(Cl)cc2n1[C@H]1O[C@@H](CO)[C@H](O)[C@@H]1O` [Maribavir]: -0.00173 °C.

With `C[C@H]1[C@H](OC(=O)CCC(=O)O)O[C@@H]2O[C@@]3(C)CC[C@H]4[C@H](C)CC[C@@H]1[C@@]24OO3` [Artesunate], the “thermal shift ΔTm of Mpro” value worked out at 0.0631 °C. The value for `CN(C)C(=O)Oc1cccc([N+](C)(C)C)c1` [Hodostin] was 0.404 °C; that for `CCOC(=O)[C@H](CCc1ccccc1)N[C@@H](C)C(=O)N1Cc2cc(OC)c(OC)cc2C[C@H]1C(=O)O` [Moexipril HCl] was 0.11 °C; that for `COc1cc(/C=C/C(=O)NCCn2c(C(F)(F)F)cc3ccccc32)cc(OC)c1OC` was 0.0888 °C. On to `CN1CCC(OC(c2ccccc2)c2ccccc2)CC1` [Diphenylpyraline hydrochloride], for which the “thermal shift ΔTm of Mpro” value came out at 0.156 °C.

Regarding `C[N+](C)(C)CCO.[Cl-]` [Choline Chloride], the “thermal shift ΔTm of Mpro” value is -0.0381 °C. The same measure for `CN1CCN(C2CCN(C(=O)Nc3cc(Oc4ccc(NC(=O)C5(C(=O)Nc6ccc(F)cc6)CC5)c(F)c4)ccn3)CC2)CC1` [Golvatinib (E7050)]: 0.0226 °C.
